Data source: PubChem BioAssay AID1508588 (Peter MacCallum Cancer Centre, 2020)

- Test: 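Which gene losses make BRAF-mutant melanoma cells more responsive to vemurafenib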 (primary screen)
- Cell system: human WM266.4 melanoma cells (BRAF V600 mutant)
- Knock-down reagent: siRNA pool against human genes, 40 nM
- Timing: 96 h from transfection to read-out
- Challenge: vemurafenib 300 nM (about IC25), added 48 h after transfection, for 48 h; comparison arm got DMSO vehicle only
- Read-out: 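Ratios to non-targeting siRNA for cell gain, counted as DAPI nuclei after minus before drug and averaged over two replicates, and for absorbance-read medium lactate per cell; both binned into fold-change classes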
- Reading the numbers: cell gain with vemurafenib: higher = more cell gain than with non-targeting siRNA; lactate per cell with vemurafenib: higher = more lactate made per cell
- Call rule: 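Enhancement is called by pairing each knock-down's vehicle-arm and drug-arm fold-change classes for viability or glycolysis; which class combinations qualify is not given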
- Meaning of the calls: active = enhances vemurafenib effect; inactive = no enhancement seen
This is one part, drawn at random, of about 18,000 deposited reagents. 790 of them (4.4%) count as active. 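Calls rest on a combination of fold-change classes in drug and vehicle arms, not all shown here.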 A number with no mark means an inactive call.

{"Target gene": "NUP42", "cell gain with vemurafenib": 0.48, "lactate per cell with vemurafenib": 1.09}
{"Target gene": "ASCC3", "cell gain with vemurafenib": 0.3, "lactate per cell with vemurafenib": 1.39}
{"Target gene": "CEP97", "cell gain with vemurafenib": 1.17, "lactate per cell with vemurafenib": 0.43}
{"Target gene": "HRG", "cell gain with vemurafenib": 0.4, "lactate per cell with vemurafenib": 1.24}
{"Target gene": "C11orf16", "cell gain with vemurafenib": 0.45, "lactate per cell with vemurafenib": 0.45}
{"Target gene": "AKR1B10", "cell gain with vemurafenib": 0.62, "lactate per cell with vemurafenib": 0.92}
{"Target gene": "SPAG5", "cell gain with vemurafenib": 0.46, "lactate per cell with vemurafenib": 0.86}
{"Target gene": "EPS8L2", "cell gain with vemurafenib": 0.08, "lactate per cell with vemurafenib": 3.48}
{"Target gene": "NAPRT", "cell gain with vemurafenib": 0.6, "lactate per cell with vemurafenib": 1}
{"Target gene": "CADM2", "cell gain with vemurafenib": 0.29, "lactate per cell with vemurafenib": 1.52}
{"Target gene": "TRAPPC5", "cell gain with vemurafenib": 0.88, "lactate per cell with vemurafenib": 0.69}
{"Target gene": "GSG1", "cell gain with vemurafenib": 0.21, "lactate per cell with vemurafenib": 1.23}
{"Target gene": "SLC30A2", "cell gain with vemurafenib": 0.37, "lactate per cell with vemurafenib": 0.9}
{"Target gene": "DHDH", "cell gain with vemurafenib": 0.59, "lactate per cell with vemurafenib": 0.76}
{"Target gene": "PHRF1", "cell gain with vemurafenib": 0.53, "lactate per cell with vemurafenib": 0.88}
{"Target gene": "ORMDL3", "cell gain with vemurafenib": 0.26, "lactate per cell with vemurafenib": 1.36}
{"Target gene": "KRT36", "cell gain with vemurafenib": 0.35, "lactate per cell with vemurafenib": 1.47}
{"Target gene": "APOL4", "cell gain with vemurafenib": 0.63, "lactate per cell with vemurafenib": 1.27}
{"Target gene": "DHPS", "cell gain with vemurafenib": "1 (active)", "lactate per cell with vemurafenib": 0.38}
{"Target gene": "ANKRD12", "cell gain with vemurafenib": 0.77, "lactate per cell with vemurafenib": 0.97}
{"Target gene": "TVP23A", "cell gain with vemurafenib": 0.4, "lactate per cell with vemurafenib": 1.49}
{"Target gene": "DPP8", "cell gain with vemurafenib": 0.6, "lactate per cell with vemurafenib": 0.54}
{"Target gene": "ZNF28", "cell gain with vemurafenib": 0.72, "lactate per cell with vemurafenib": 1.19}
{"Target gene": "CGB5", "cell gain with vemurafenib": 0.47, "lactate per cell with vemurafenib": 0.96}
{"Target gene": "CHKA", "cell gain with vemurafenib": 0.53, "lactate per cell with vemurafenib": 1.21}
{"Target gene": "C1QTNF12", "cell gain with vemurafenib": 0.84, "lactate per cell with vemurafenib": 1.06}
{"Target gene": "NOS1AP", "cell gain with vemurafenib": 0.29, "lactate per cell with vemurafenib": 1.49}
{"Target gene": "CHAD", "cell gain with vemurafenib": 0.51, "lactate per cell with vemurafenib": 1.88}
{"Target gene": "PPT2", "cell gain with vemurafenib": 0.57, "lactate per cell with vemurafenib": 1}
{"Target gene": "APLF", "cell gain with vemurafenib": 0.59, "lactate per cell with vemurafenib": 1.43}
{"Target gene": "PEX16", "cell gain with vemurafenib": 0.46, "lactate per cell with vemurafenib": 1.56}
{"Target gene": "PON3", "cell gain with vemurafenib": 0.46, "lactate per cell with vemurafenib": 1.54}
{"Target gene": "RNF208", "cell gain with vemurafenib": 0.79, "lactate per cell with vemurafenib": 0.95}
{"Target gene": "ARL6IP6", "cell gain with vemurafenib": 0.55, "lactate per cell with vemurafenib": 0.93}
{"Target gene": "EXD1", "cell gain with vemurafenib": 0.93, "lactate per cell with vemurafenib": 0.64}
{"Target gene": "GCKR", "cell gain with vemurafenib": 1.08, "lactate per cell with vemurafenib": 0.8}
{"Target gene": "SRGN", "cell gain with vemurafenib": 0.79, "lactate per cell with vemurafenib": 1.18}
{"Target gene": "TBCC", "cell gain with vemurafenib": 0.96, "lactate per cell with vemurafenib": 0.77}
{"Target gene": "FOCAD", "cell gain with vemurafenib": 0.59, "lactate per cell with vemurafenib": 1.03}
{"Target gene": "ZNHIT6", "cell gain with vemurafenib": 0.92, "lactate per cell with vemurafenib": 0.65}
